Article PMC10338680
No constants are given. Whether binding was seen depends on the method and setting. In cells and extracts the contact can be indirect. Some results given as binding are weak or reduced against the parent protein; the word gives no strength.

By UniProt entry, the sequences of proteins in these tests, tags left out.
UniProt Q91Z31: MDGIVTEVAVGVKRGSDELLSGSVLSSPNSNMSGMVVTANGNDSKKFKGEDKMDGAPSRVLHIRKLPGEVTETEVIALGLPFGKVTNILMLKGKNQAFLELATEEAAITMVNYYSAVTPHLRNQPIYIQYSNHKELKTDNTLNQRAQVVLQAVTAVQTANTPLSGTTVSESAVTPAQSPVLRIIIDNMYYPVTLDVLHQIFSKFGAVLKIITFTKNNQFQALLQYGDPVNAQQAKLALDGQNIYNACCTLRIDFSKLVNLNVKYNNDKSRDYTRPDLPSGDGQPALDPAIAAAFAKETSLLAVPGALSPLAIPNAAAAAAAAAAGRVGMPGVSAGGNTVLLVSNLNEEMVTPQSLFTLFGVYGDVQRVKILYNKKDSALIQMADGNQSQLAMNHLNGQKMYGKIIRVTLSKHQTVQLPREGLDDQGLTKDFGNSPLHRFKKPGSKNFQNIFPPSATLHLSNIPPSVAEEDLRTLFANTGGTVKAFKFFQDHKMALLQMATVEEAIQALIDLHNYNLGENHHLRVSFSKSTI
UniProt Q6ZWX6: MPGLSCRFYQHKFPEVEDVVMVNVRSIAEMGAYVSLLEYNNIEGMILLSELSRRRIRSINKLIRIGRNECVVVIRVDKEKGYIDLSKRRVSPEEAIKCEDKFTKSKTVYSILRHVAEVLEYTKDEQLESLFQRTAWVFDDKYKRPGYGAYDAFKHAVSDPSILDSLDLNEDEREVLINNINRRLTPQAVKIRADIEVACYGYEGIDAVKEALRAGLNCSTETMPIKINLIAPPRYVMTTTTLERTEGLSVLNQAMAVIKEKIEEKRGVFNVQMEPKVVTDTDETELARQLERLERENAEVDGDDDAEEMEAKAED

Biological target: Polypyrimidine tract-binding protein 2 (Ptbp2) (mouse (endogenous in primary mouse motoneurons)) (UniProt Q91Z31)
Assay: co-IP; anti-Ptbp2 on Protein A/G Dynabeads, primary mouse motoneuron lysate (10 mM HEPES pH 7.0, 100 mM KCl, 5 mM MgCl2, 0.5% NP-40), 2 h at 4 °C, immunoblot; IgG control; also with lysate treated with RNase A for 15 min

- binding: binds
Substance: initiation factor eIF2α (from UniProt Q6ZWX6 1-315)
